# Results published in PubChem BioAssay AID2685 (National Center for Advancing Translational Sciences (NCATS), 2010).
# The whole screen tested about 320,000 compounds, of which about 2,100 (0.66%) were called active. This list was built around the results that the source calls inconclusive (neither active nor inactive); the mix of calls is not that of the screen. Calls come from the whole dose curve; as a rule, active = well fitted inhibition curve with a large enough effect in the signal ratio, with a control signal flat (not every such curve was filed as active); inconclusive = small, poorly fitted or top-dose-only effect, or effect the other way, or a change in a side signal; inactive = flat fitted curve, though single readings scatter; the % refers to the signal ratio. Potencies of inconclusive entries are doubtful fits and often do not repeat.
# Test: qHTS Assay for Lipid Storage Modulators in Drosophila S3 Cells
# Conditions: BODIPY lipid droplet fluorescence, 18-24 h, cells fed with added oleic acid; lipid storage change, negative = inhibition: at 46.1 µM (top of the series) unless noted
# In short: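 Drosophila S3 cells got compounds at several concentrations plus oleic acid (400 uM solution). Laser-scanning cytometry with 488 nm excitation read lipid droplets at 500-530 nm and cells at 575-640 nm. Percent activity was relative to 20 uM Triacsin C.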
# % is set by controls: 0 for no effect and ±100 for the full control effect; potency is the fitted concentration of half-maximal effect.
SMILES,Potency,"lipid storage change, negative = inhibition"
CCc1c(C)sc(NC(=O)c2ccco2)c1C(=O)N1CCCCC1,"inconclusive: 18.4 µM [falling, partial curve, poor fit]",
O=C(CN1C(=O)c2ccccc2S1(=O)=O)N1CCN(Cc2ccc3c(c2)OCO3)CC1,"inconclusive: 13 µM [activator, partial curve]",
COc1ccc(C(=O)NC(=S)N2CCN(C)CC2)cc1Br,"inconclusive: 0.184 µM [activator, full curve, poor fit]",
O=C(NCc1ccccc1)c1cccnc1,,inconclusive: 6.71%
CS(=O)(=O)c1ccc(Cl)c(NC(=O)Cc2c(Cl)cccc2Cl)c1,,inconclusive: 28.4%
CCC(=O)OCC(=O)Nc1cc([N+](=O)[O-])ccc1OC,,inconclusive: 8.05%
COc1ccc(S(=O)(=O)N2CCOCC2)cc1NC(=O)C1COc2ccccc2O1 (stereo not given),"inconclusive: 0.116 µM [falling, full curve, poor fit]",
O=C(Nc1cc(C(F)(F)F)ccc1-n1cncn1)c1ccc(Br)cc1,,inconclusive: 0.32%
O=C(COC(=O)c1ccc2c(=O)n3c(nc2c1)CCC3)Nc1ccccc1F,,inconclusive: 16.5%
N#C[C@@H]1[C@@H]2C(=O)N(c3ccc4c(c3)OCCO4)C(=O)[C@@H]2C2c3ccccc3C=CN21 (stereo not given in full),"inconclusive: 20.6 µM [falling, single point]",
CCOC(=O)N1CCN(C(=O)CSc2nnc(C3COc4ccccc4O3)o2)CC1 (stereo not given),,inconclusive: 2.7%
O=C(CN1C(=O)C2CC=CCC2C1=O)Nc1ccc(S(=O)(=O)N2CCOCC2)cc1 (stereo not given),,inconclusive: -24.3%
CC(C)OCCCNC(=O)c1cc(Sc2ccc(F)cc2)nc2ccccc12,"inconclusive: 2.59 µM [activator, partial curve]",
N#Cc1ccccc1COC(=O)CCCC1=NS(=O)(=O)c2ccccc2N1,"inconclusive: 32.6 µM [falling, single point]",
CCc1cccc(OCCCCNCCCOC)c1,,inconclusive: -16.9%
CO/N=C1\CCCc2c(C(=O)NN)sc(SC)c21,"inconclusive: 2.31 µM [activator, full curve, poor fit]",
O=C(CN(c1ccc2c(c1)OCCO2)S(=O)(=O)c1ccccc1)NCc1ccc(Cl)cc1,,inconclusive: 17.1%
O=C(CSCc1ccccc1)N1CCN(S(=O)(=O)c2cccc(F)c2)CC1,"inconclusive: 0.461 µM [activator, full curve, poor fit]",
O=C(O)/C=C/C(=O)NCCc1ccc(Cl)cc1,,inconclusive: 15.9%
O=C(C1CCCO1)N1CCN(C(=S)Nc2ccccc2F)CC1 (stereo not given),"inconclusive: 0.92 µM [falling, full curve, poor fit]",
CN1CCC(N(C)C(=O)c2ccc(Cl)c(S(=O)(=O)N3CCCCC3)c2)CC1,active: 14.6 µM,
CCOC(=O)c1sc(=NC(=O)c2cccs2)n(C)c1C,,inconclusive: 41.6%
CC(C)(C)n1nc2c(c1NC(=O)c1ccco1)CS(=O)C2 (stereo not given),active: 29.1 µM,
O=C(Nc1nc2cc3c(cc2s1)OCCO3)c1cccc(S(=O)(=O)N2CCOCC2)c1,,inconclusive: -17.9%
Cc1cc(C)c2cc(CN(CCO)C(c3nnnn3Cc3ccc(F)cc3)C(C)C)c(=O)[nH]c2c1 (stereo not given),"inconclusive: 18.4 µM [activator, partial curve]",

SMILES,Potency,"lipid storage change, negative = inhibition"
Cc1ccc(S(=O)(=O)N2CCC(C(=O)N3CCc4ccccc43)CC2)cc1C,,inconclusive
NNC(=O)Cn1c(-c2ccccc2)cc(=O)n2ncnc12,,inconclusive: 30.2%
COc1ccccc1CNC(=O)[C@H](C)NC(=O)C1CCN(C(=O)[C@@H](N)C(C)C)CC1,,inconclusive: 1.86%
CCc1nc(SCC(=O)Nc2ccc(F)cc2)c2c(=O)n(C)c(=O)n(C)c2n1,,inactive: -28.8%
CC1(c2nnc(Cc3ccccc3)o2)CC(c2ccc([N+](=O)[O-])cc2)=NO1 (stereo not given),"inconclusive: 7.31 µM [activator, partial curve, poor fit]",
O=C(Nc1ccc(Cl)cc1)N1CCCC1,"inconclusive: 3.66 µM [activator, single point]",
NC(=O)CSC1=Nc2ccccc2C2=NC(CCC(=O)NCc3ccc(F)cc3)C(=O)N12 (stereo not given),,inconclusive: -27.1%
Cc1cc(C(=O)NNS(=O)(=O)c2cc(C(=O)O)ccc2Cl)c(C)n1-c1ccccc1,,inconclusive: 0.0799%
COc1cc(S(=O)(=O)NC2CCCCC2C)ccc1-n1cnnn1 (stereo not given),,inconclusive: 9.89%
COc1ccc(C(c2nnnn2Cc2ccccc2)N2CCN(c3ccccc3)CC2)cc1 (stereo not given),"inconclusive: 2.31 µM [activator, partial curve]",
O=C(NNC(=S)NC(=O)c1ccccc1[N+](=O)[O-])c1ccccc1O,,inconclusive: 14.6%
COc1ccccc1N(CCC#N)C(=O)CSc1nc(-c2ccccc2)cn1N,,inactive: 21.1%
CN1C(=O)CC(n2c(CO)nc3ccccc32)C1=O (stereo not given),"inconclusive: 0.146 µM [falling, full curve, poor fit]",
CCCC(O)(c1ccc(OC)cc1)C(CN1CCOCC1)c1ccccc1 (stereo not given),,inconclusive: -20.9%
O=C1CC(N(O)c2ccccc2)C(=O)N1c1cc(Cl)cc(Cl)c1 (stereo not given),,inconclusive: 4.54%
CCOC(=O)[C@@H]1[C@H]2COc3ccccc3[C@@H]2N2C(=O)N(c3ccc(Cl)cc3)C(=O)[C@@]12C,,inconclusive: 5.63%
Cc1cccc(NC(=O)C2CCN(C(=O)c3ccc(Cl)cc3)CC2)n1,,inconclusive: 7.06%
O=C(NCC(=O)N1CCCC1)c1ccc(Br)o1,,inconclusive: -50.9%
Cc1cc(C(=O)OCC(=O)N(C)c2ccccc2)ccc1[N+](=O)[O-],,inconclusive: 37.8%
O=c1ccc(=O)n(-c2ccccc2)[nH]1,"inconclusive: 23.1 µM [falling, single point]",
O=C(O)CCCNC(=O)CCCNC(=O)C(c1ccccc1)c1ccccc1,"inconclusive: 0.0065 µM [falling, full curve, poor fit]",
Cn1c(=O)[nH]c(=O)c2c1nc1n2CCS1,,inconclusive: -7.07%
COc1ccccc1NC(=O)c1cc(C)nc2ccccc12,,inconclusive: -44.7% [cytotoxic] [at 0.369 µM]
CCOc1ccc(NC(=O)CN(c2ccc(OC)cc2)S(C)(=O)=O)cc1,"inconclusive: 10.3 µM [activator, partial curve]",
CCCCNC(=O)c1onc(CSc2cc(C)ccc2C)c1C(=O)O,,inconclusive: -24.8%

# 3 entries out of the list, arranged by count of non-hydrogen atoms, rising:
SMILES,Potency,"lipid storage change, negative = inhibition"
CCOc1ccc(NC(=O)CN(c2ccc(OC)cc2)S(C)(=O)=O)cc1,"inconclusive: 10.3 µM [activator, partial curve]",
CCc1nc(SCC(=O)Nc2ccc(F)cc2)c2c(=O)n(C)c(=O)n(C)c2n1,,inactive: -28.8%
COc1ccccc1N(CCC#N)C(=O)CSc1nc(-c2ccccc2)cn1N,,inactive: 21.1%

# Further structures follow:

SMILES,Potency,"lipid storage change, negative = inhibition"
CCc1c(C)n2nc(C)cc2[nH]c1=O,,inconclusive: -8.63%
Cc1ccc(S(=O)(=O)c2nc(-c3ccccc3)oc2N2CCCC2)cc1,,inconclusive: 94.1%
Cc1cccc(-n2ncc3c2CCCC3NC(=O)CN2CCCC2=O)c1C (stereo not given),,inactive: 6.5%
COc1ccc(Cl)cc1NS(=O)(=O)c1cccc(C(=O)NCC2(N(C)C)CCCCC2)c1,active: 32.6 µM,
O=C(COC(=O)c1ccc(S(=O)(=O)Nc2ccccc2)cc1)NCC1CCCO1 (stereo not given),,inconclusive: -13.6%
Cc1ccccc1COCCN1CCN(S(=O)(=O)c2ccccc2)CCC1=O,,inconclusive: 13.8%
COc1ccc(CNc2ncnc3ccccc23)cc1,,inconclusive: -113%
COc1cc(C2=NOC(C(=O)NCc3cccnc3)C2)cc(OC)c1OC (stereo not given),"inconclusive: 29.1 µM [falling, partial curve, poor fit]",
N#CC(C(N)=O)=C1CCC2(CC1)OCCCCO2,,inconclusive: -132%
COc1cccc2cc(C(=O)Nc3ccccc3C)/c(=N/O)oc12,,inconclusive: -124%
CCN(CCCNC(=O)C1CCN(S(=O)(=O)c2c(C)[nH]c(=O)[nH]c2=O)CC1)c1cccc(C)c1,,inconclusive: -15.7%
COc1ccc(-c2noc3c2-c2nc(-c4ccc(Cl)cc4)sc2CC3)cc1,,inconclusive: -23.9%
COc1ccc2nc(N=Nc3ccc(O)c4ccccc34)sc2c1,"inconclusive: 0.517 µM [activator, single point]",
COc1cc(C(=O)N/N=C(\c2ccccc2)c2ccccn2)cc(OC)c1OC,"inconclusive: 16.4 µM [falling, single point]",
CCOc1ccc(C2N(c3ccc(Cl)cc3)C(=O)C3CCCN32)cc1OC (stereo not given),,inconclusive: 7.73% [at 9.22 µM]
Cc1c(NS(=O)(=O)c2cccs2)cccc1-c1nc2cccnc2s1,,inconclusive: 13.3%
CCCC(=O)Nc1ccc(Cc2ccc(NC(=O)CCC)c(C(=O)O)c2)cc1C(=O)O,,inconclusive: -53.5%
Cc1ccc(C)c(S(=O)(=O)N2CCCOC2CNC(=O)C(=O)NCc2ccccc2)c1 (stereo not given),"inconclusive: 29.1 µM [activator, single point]",
C/C=C(/C)C(=O)O[C@@H]1c2cc(OC)c(OC)c(OC)c2-c2c(cc3c(c2OC)OCO3)C[C@H](C)[C@]1(C)O,,inconclusive: -24.8%
O=[N+]([O-])c1cccc(-c2nc(NCc3ccccc3)c3ccccc3n2)c1,"inconclusive: 2.31 µM [activator, partial curve]",
CCCn1c(SCC(=O)Nc2nonc2C)nnc1-c1ccoc1C,"inconclusive: 1.84 µM [activator, single point]",
CC(C)C(c1nnnn1C1CCCC1)N1CCc2ccccc21 (stereo not given),,inconclusive: 9.66%
O=C(CCC(=O)N1CCCCCC1)Nc1ccc([N+](=O)[O-])cc1,,inconclusive: 8.86%
O=C(Nc1ccc(F)cc1)c1ccc2nsnc2c1,,inconclusive: 14.9%
CC(=O)N1c2c(cc(Br)cc2S(=O)(=O)NCc2ccc3c(c2)OCO3)CC1C (stereo not given),,inactive: -20.4%
